“And” between values parts separate entries of the source, which are not always exact repeats. Equal entries are not always repeated. The list shows a part of the results. For some assays here: The source does not settle which construct or isoform was used.

Among the test systems are TPM3 (human); TPM4 (human); TPP1 (human); TPT1 (human); TRA16 (human); TRAPPC3 (human); TRBV5-4 (human); TRIM11 (human); TRIM32 (human); TRIM44 (human); TRIM63 (human); TSC22D3 (human); TSNAXIP1 (human); TSPAN12 (human); TSR2 (human); TTC1 (human); TTC32 (human).
Holding throughout (experiment): protein microarray (ProtoArray v5.0), streptavidin-Alexa Fluor 647
Holding throughout (conditions): 3'-biotin; 20 mM Tris (pH 7.5), 5 mM MgCl2, 100 mM KCl, 0.1% Tween-20, A/T-rich and random oligonucleotide blockers; temperature not stated; high values mean tight binding

A further assay has as its target T1, TRIM31 (UniProt Q9BZY9).
T1 sequence: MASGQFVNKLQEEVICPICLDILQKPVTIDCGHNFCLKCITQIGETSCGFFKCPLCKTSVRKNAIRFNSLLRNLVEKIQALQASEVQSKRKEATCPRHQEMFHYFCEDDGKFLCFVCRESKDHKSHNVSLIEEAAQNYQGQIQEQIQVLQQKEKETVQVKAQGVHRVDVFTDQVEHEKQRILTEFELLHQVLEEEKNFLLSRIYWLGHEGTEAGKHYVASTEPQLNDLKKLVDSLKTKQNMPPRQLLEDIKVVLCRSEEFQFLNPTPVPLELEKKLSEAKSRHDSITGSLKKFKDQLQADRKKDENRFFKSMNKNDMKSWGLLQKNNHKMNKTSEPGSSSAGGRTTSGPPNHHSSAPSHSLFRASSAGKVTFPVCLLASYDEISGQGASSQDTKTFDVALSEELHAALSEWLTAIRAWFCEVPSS

A further assay deals with T2, TRIM69 (UniProt Q86WT6).
T2 sequence: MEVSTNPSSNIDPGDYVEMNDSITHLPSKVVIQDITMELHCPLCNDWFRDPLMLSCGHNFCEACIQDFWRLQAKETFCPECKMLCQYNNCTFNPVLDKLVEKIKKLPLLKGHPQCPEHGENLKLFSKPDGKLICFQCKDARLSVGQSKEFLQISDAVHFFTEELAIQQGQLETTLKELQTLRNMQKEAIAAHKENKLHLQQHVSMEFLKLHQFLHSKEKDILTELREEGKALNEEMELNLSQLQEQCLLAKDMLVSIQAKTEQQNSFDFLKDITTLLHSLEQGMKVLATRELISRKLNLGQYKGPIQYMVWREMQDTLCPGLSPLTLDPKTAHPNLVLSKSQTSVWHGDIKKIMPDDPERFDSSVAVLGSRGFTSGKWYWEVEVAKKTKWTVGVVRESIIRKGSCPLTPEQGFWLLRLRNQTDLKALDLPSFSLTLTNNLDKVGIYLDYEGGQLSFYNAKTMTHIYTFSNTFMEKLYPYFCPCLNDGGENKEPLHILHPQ

For a further assay, the target named is T3, TSPAN5 (UniProt P62079).
T3 sequence: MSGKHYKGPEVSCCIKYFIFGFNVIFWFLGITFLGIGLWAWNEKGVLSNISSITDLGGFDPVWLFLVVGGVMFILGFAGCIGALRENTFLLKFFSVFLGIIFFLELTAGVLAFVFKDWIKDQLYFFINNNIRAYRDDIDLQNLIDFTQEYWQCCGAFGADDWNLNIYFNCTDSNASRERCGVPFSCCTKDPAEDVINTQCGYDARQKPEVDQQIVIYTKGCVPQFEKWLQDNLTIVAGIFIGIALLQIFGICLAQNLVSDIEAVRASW

For “GGGGACAGGGGTATGGGGAGGGG [G4-3 biotinylated (CtG)]”, the binding signal with TPM3 (human) was -0.338 z-score and -0.331 z-score; in the assay on TPM4 (human), -0.319 z-score; in the assay on TPP1 (human), -0.33 z-score; in the assay with TPT1 (human), -0.334 z-score; with TRA16 (human) it was -0.33 z-score; with TRAPPC3 (human), -0.331 z-score. Besides, the binding signal in the assay on TRBV5-4 (human) was -0.318 z-score; in the assay on TRIM11 (human) it was -0.336 z-score; with TRIM31 it was -0.314 z-score; in the assay on TRIM32 (human), -0.308 z-score; in the assay with TRIM44 (human), -0.338 z-score; in the assay with TRIM63 (human) it was -0.325 z-score. Also, the binding signal with TRIM69 is -0.307 z-score; with TSC22D3 (human), -0.33 z-score; in the assay on TSNAXIP1 (human), -0.333 z-score; in the assay on TSPAN12 (human), -0.325 z-score; with TSPAN5 it was -0.307 z-score; in the assay with TSR2 (human), -0.336 z-score. Also, the results for the binding signal with TTC1 (human) and in the assay with TTC32 (human) were -0.332 z-score and -0.318 z-score, respectively.

The values above are taken from publication PMC5996148.
